Reference: PMC10723533

T1: Paa1-L-YFP (S. pombe) (UniProt Q9UT08)
T1 sequence: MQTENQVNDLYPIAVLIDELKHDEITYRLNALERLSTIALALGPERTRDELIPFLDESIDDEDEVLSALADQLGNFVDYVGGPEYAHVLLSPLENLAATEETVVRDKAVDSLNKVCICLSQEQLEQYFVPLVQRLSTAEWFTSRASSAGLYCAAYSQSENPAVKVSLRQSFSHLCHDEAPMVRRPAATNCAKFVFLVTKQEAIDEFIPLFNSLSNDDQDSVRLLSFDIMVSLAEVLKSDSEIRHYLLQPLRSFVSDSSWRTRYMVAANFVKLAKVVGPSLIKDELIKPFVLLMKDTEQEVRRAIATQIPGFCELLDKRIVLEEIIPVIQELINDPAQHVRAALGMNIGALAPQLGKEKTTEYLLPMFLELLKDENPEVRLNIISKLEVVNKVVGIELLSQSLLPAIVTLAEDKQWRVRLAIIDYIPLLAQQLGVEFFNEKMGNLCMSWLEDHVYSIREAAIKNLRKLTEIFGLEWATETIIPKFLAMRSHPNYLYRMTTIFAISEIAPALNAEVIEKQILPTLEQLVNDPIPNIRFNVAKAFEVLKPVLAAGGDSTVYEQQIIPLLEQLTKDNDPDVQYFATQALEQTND

B1: Elp1 (protein, UniProt O59704 1-1253)
chain: MKNLVTHLHHVFPNVNGSIKALAFNSISDKIYVVCGLDNENPGIEIYEISENDDVSKLVEFDSPSFVSDNGDIDEIQSMQFLGEPMAICLSLKGGDIVMVKVDPSPEEAPWEIIGNVENGIVASCWSTDEQVFCIITGGDTILFMTKNFDIISETSLSDADLNEFNKHISVGWGRSETQFRGKRVRAKLRDPTLPEKIDEGKLSDVDDGKTYICWRGDSQYVSINRLEKGPRRAIRVYSREGLLDSISEPQDGQQSLLSWKPSGSVLATIKSDSSDNSSKVIFFERNGLRHGEFSLRRREDEKYTGLAWNVSSSILAVSTENSVMLWTTGNYHWYLKKEINIPQNALISWHPEHANTLYITGKNHIEKVVFDLKYVTEFSTSPNDFGLIPVIDGSSLLVTPLSLCNIPPPMCRYKLSLDYNVQMTSINATSDMLFAADDRRLTAFTFNSQEDIAKFGEFDISTYAEGLNFKSLLGLSGNQVLLLADGTNNCSKFFVFQCDEDNESLKLLASESFESCILNASYCSEMLFFQTSSGKLISYNLNVKSIESISLSFPKPCSDFVVVPVHETFVPIGLTSYGRLYAEQRLLSTGVLSFFCTERFVLFTTTKNLLKFVHLVSTVDDLQVVEDDAVDRHDERCRVVERGSKIVASMPSKMAVVLQMPRGNLETIYPRIMVLDGVRTYIKALKYGDAFKVCRTHRLDLNILFDYDPDLFLKNIPVFVDGLYRVDYLDLFLTSLKPENVTTGMYSDTSKSQSQQSVTTIDNKVNLLCKIIREHLTSKYGDTHFQAIITSYLCESPPKIEAALGMISGLIKAQSETVDLAIEHMCFLVDVNMLFDHALGLYDLKLALLIAQQSQKDPREYVPFLHEFQKQESLRRKFNIDCYLKRYERALGHLKEMENAFDEFKNFTIQHKLYPRALELYKYDKEAQKEVLIIFAQYLRENGKSNEAAIAYESVGKISEAIEAYKSAGMWRECLSILQQTTNSEDLIRETAEDLASLCIEKREHCDAGSINLLYLSNPREAVIQMCKGSQYSEAIRIARATGDSSIYKDLLISVLGESFGEASELVADFRNQIKSQTERILVLREKKKEDPISWMEGTMEDQTPDDISLASTSLSTNRSLYTQYTKSSNSSKMTRNTSKNNRRLERKRARGKKGTVFEEEYLVNSLRRLIARVEEIRPEVHRLLEALVRCNMTTQASELQRNFANVIGTIGEKVIPILSVPVSTFETALGEQPQAPVVPNVKPFEKLSILI
B2: Elp2 (protein, UniProt O94533 1-760)
chain: MFQYEALHVGCNRIPTAATWSSNLGLIYGAERLIAVADPFKEINYLMAGHSGRINCVCELATNSEYRSPFILSGASDKTLRLWQLEEEYFTCIKTIELEATVNCLCVNENLVVCGCSNSSCIVYSWNAEQRNLTEISRFTCSEIIPLEFAIVKLDHGIILTVCGSSKKIMVYGSDSAISSFKLKAVLRGHLDWVRTLSFKKTSGSTATLASGSQDRYIRLWNISLWGSEDEKVSEEFFESVLSNKPVRFTLGKIDLKIVFDALLMGHEDWVMSVDWHPTKEMILSSSADSSMIVWEPDTNTGIWVVTGRMGEMASSHGSTTATGSAGGFWGGLWNPNGNCVVCWGRTGGWRLWKQDAGQWLQLPSISGHTKSVKGVAWDPEGKFYLSAGTDQTTRLFARFKKDNAWHEMARPQIHGYDLTSISCMPSRIGFLSCADEKVSRVFKFPKTIVRLLYRLCDTNIGEESLPDAANVPLLGLSNKATTASETGTVNAEEVQTPVADVIGSLNHPPFEEHLQRLLLFPEVEKLFGHGYEVYACAISNNGNIAATSCKSQTPEHAVIRLYETQSWNQQQVLKGHSLTVTTIKFSPDDRYILSAGRDRLVCLHEQAENLLDYNNFASIKAHSRIIWDASWAPKEMGYFFATASRDKFVKFWKINDNKKICDVAALQFSDAVTAVDFAPFFHNDELLLAVGTEAGKIFIWRCPRENLTKWYPTRLPDHMAPMESINQILWKPTFETMGLYSLLIAGEDTSVRLLNVTLG
B3: Elp3 (enzyme, UniProt O14023 1-544)
chain: MSTSSLAFLKAKACAEIVAELIASENQNKVINLNALKMRISKKHQLSESPRLTDIIAAIPPDAYLKESLMRKLRAKPVRTASGIAVVAVMCKPHRCPHIAMTGNVCVYCPGGPDSDFEYSTQSYTGYEPTSMRAIRARYDPYEQARGRVEQLRSLGHTVDKVEYIIMGGTFMSLPESYRHTFIANLHNALSGATTEDLDEAVKFSEQSETKCVGITIETRPDYCLDQHLDEMLRYGCTRLEIGVQSVYEDVARDTNRGHTVKAVCETFQLAKDTGYKVVTHMMPDLPNVGMERDIFQFQEYFENPAFRTDGLKLYPTLVIRGTGLYELWKTGRYKNYTPNALVDLIARILALVPPWTRIYRIQRDIPMPLVSSGVETGNLRELALNRMRDLGTKCRDIRAREVGMQEVHHKIHPEQVELLRRDYTANGGWETFLSYEDPKQDILIGLLRLRQCSDKTYRPEFTSQPTSLVRELHVYGSAVPVHSRDPKKFQHQGFGTLLLEEAERIAKYEHGSKKISVISGVGVRKYYQKLGYTLDGPYMSKWL
B4: Zds1 (protein, UniProt O14100 1-938)
chain: MSSSSVSNTLSIETKSDPKDPAFVASQESTECNEHDTTQLSGSSSEPLENNSSLTRSTDDPSVEIRSKLVSPDNEANLLSDQNITISNENNNENDTTEEAETSSGNEAADDEDSSSDAQSSVPSFSEIHDGMSEEELDKERKTLTHLRRISLQGADDPEIPTDWSVAMSPPETEQDASTLFWVPANLHPELNPTGWKSFLDLQVKNLKSPTATDTSSSPLEHIRSLRRRKSLLSRQVKADDAVINYQDGSPIVEKAYLKRHRSLRLNELEHLESLARDPHRMVSLVDGMSNGSPEDSPLLVSPNHFLQRSSRTTIRRTGASIRTIHRGKTSTLSGNRSHSILQKPTDTSPLHKIEPISADELVESDDSRTSALSNSQNPSDDVENQSDQALEVLSLTNPPKIDNASADTTLHKETNKIDKLYVSENKAESAVASESSLSEGTLALKAPAPENKPEKSSTSKPPVPENKAEDSVVLKSSVPEDKSENSIASKPSATEGIPENAIALQSSVPENKAEDSVVLKSSVPEDKSEDSVPSKSSVLEDKHENSVEIDKKADDSLPSNNKTEGYTPSVVREEKNYSEPNASPSVIPPRVPTPVPGRTLSPKPTRIPTPIPSSLNVSLESSKKPEIFHERHIPTPETGPNKPSKNNILKSTQVPVTPKQKSSTANKGSTSSPSPPSSESKKTKRSWGRLFVSGDSDKEHKEHKKDKQKKKNDQISSSSKSASSFKKDRDKESIFGSLFGSKKKQTEIPPVSSSPPHNDAPPKAKPISAPSELPNTTSVAEAKCQTVTDDEGTDQQSDEKSTEPKTFIPDKDYYWSRFPICTERAIYRLSHIKLSNAHRPLFQQVLLSNFMYSYLDLISRISSNRPMNNVQQSTAKPIRKDINGQQRRSEFSAENVKNELENLSYQFGDQRKRNLNRKGSTIHTVSQNIQKVSKNAK
B5: Ekc1 (protein, UniProt O74511 1-838)
chain: MFWRLGQGFGFQSSSAIEAILDKPEDEINLKELLEENGVLDECKSHNPKLLEYLCKPEVLSQLIDYILEVDETEIPSADGGYEEPEHTRLSYIASEILSSDVWSICEACVENKTLMVKLWSFLDSEGPLNPLQASYFAKVNEHFLDKKTEETVAFIQSIDNFVEKILRHAETSAIMDLLLKFISMDRCNTAIGIADWLYSQGLIQSLLRLLSPYVDPDVQFTVADVIKAIIAISANSNEPGVIGPNSLSRELVSRQTITTLTDYMTDSKAPHSATSLINGVSIVIELIRKNNSDYDVTPVLQMPLDTHPPTTRDPIYLGTMLRLFAEKIPVFQKILLKPSTESDLMPTSFGKIKPLGFERFRICELYAELLHCSNMSLLSDPNGEAMVMQRDHLRDYLFRHNSCARDLVMSDEDDDDSTFSDKNSKDFKETEDMNGAEDMHGRAPQITKDNLNLTTTDSPMSEAEPVSEEEYKDVMETAKALHHGDDDAASDTSYEPLPESVIEDAKKLPVIGDFLKIEFIQNNVIPTILDHFFDYPWNNFLHNVVYDVVQQVLNAPMDKDQNYALAVDMFKQGKITEKIVYGQELNDKKVAKPSGFRAGYMGHLTIIADEVVKFVEHYSSTFDQELLNLINDEKWQNFVNKTLVETRNRDNQLLGGLEPSMVGYLEDMDEGEMLDANNLPEMQFALEQELESNSSDDDVVEVHRELSHNSSSNDEDDGNDEDPLSREMSRRLSFESANDSDQDNRDHFAQYMSQQISDNNANQFSSSDEDDDDDDEVVEWVSRGNENKYPRSNFFINGSDREDFSDSEEEDGNDSSDDDRGFAEEEYSDGLVLNHGK
B6: Ppe1 (enzyme, UniProt P36614 1-305)
chain: MFDLDEWIATVRKCKYLPEHQLKRLCEMVKVILMEESNIQPVRTPVTVCGDIHGQFYDLLELFRVGGELPSTNYIFMGDFVDRGYFSLETFTLFMLLKARYPDKITLLRGNHESRQITQVYGFYDECQTKYGNANVWKYCCQVFDFLTLAAVIDNKILCVHGGLSPEVRTLDQIRILARAQEIPHEGSFCDLMWSDPEDIESWTVSPRGAGWLFGSKVTTEFSQINDLTLIARAHQLVQEGYKYHFADKNLVTVWSAPNYCYRCGNVASVMKVDESLEPEFRIFSAVADEDRTVPPSRKRSEYFI
B7: Par2 (protein, UniProt P78759 1-627)
chain: MKGLRSKFVKALSLKDEQGSHKNGHSKSHYISKNGSYVETDDVKHTDTHHSSKHELKKLKSHFLKDTLKHKRNHHANSNNEKHENSDKKIHTTVLASGHEDSDYSTFLPVIETSKVKDANHFPPNYPEPKNDSVSSNIDEFPNDSISSASFLSVPQSTPPYLVSQPTPLNKFLAGAENVDIPHSLRPVPRREHSSQFQVSEKRTLVRLPSFDDVHTSEREELFIKKLEQCNIIFDFNDPSSDLASKEIKREALLQMIDYVSENRGISSASLFPYVVNTFSLNVFRPISPALNDYSSDMFALDDEPFLEPAWPHLEEVYLLFIKFLESPDFRASKAKSLVDRRFFNRLLALFDTEDPRERELLKTTLHRIYGKFLNLRSYIRKSMNNVFLQFIYEREKFHGIAELLEILGSIINGFAVPLKEEHKIFLSKVLIPLHQTKSVFLYHPQLTYCIVQFIDKDPSLTKAVLTGILKYWPRINSFKELLFLNEIEDIFEVLEPSEFVNIMSPLFQQLARSISSMHFQVAERALCLWSNEYFTSLVSQNVVTLLPIIYPSLYKTANEHWNSTIQAIACNVLQIFVDMDADFFNGLVEDYKQAIIKQEEVMIIRKQQWCQIEALAAENKPTDYLR

Molecular target: GFP-Pab1 (S. pombe)
Assay: affinity purification with mass spectrometry; GFP-Pab1 (nmt41 promoter) on GFP-TRAP magnetic agarose beads; cells in EMM2 or shifted to EMM2-N for 1 hour; NP-40 buffer (1% NP-40, 150 mM NaCl), 90 minutes at 4°C; 2D-LC-MS/MS

binding	Binder
binds	B1
binds	B2
binds	B3

Molecular target: T1, Paa1-L-YFP (S. pombe)
Assay: affinity purification with mass spectrometry; YFP-tagged bait (Paa1-L-YFP or Pab1-L-YFP) on GFP-Trap beads; cells 1 hour in EMM2-N, crosslinked with 1% formaldehyde for 10 min at 25 °C; lysis buffer 25 mM Tris HCl pH 7.5, 150 mM NaCl, 0.5% SDS (diluted to 0.1%), 1% NP40; washes with 500 mM NaCl

binding	Binder
binds	B4
binds	B5
binds	B6
binds	B7

Results are given in words; binding and its absence hold for the method and conditions named. Binding seen in cells or lysates may run through a third protein. A yes stands for co-enrichment or nearness to the bait. Other partners may have been found. For some of these results: Tags and fused reporters may be left off the sequences shown.
